Measurements as given in the supplement of paper PMC12067093, “Discovery and optimisation of a covalent ligand for TRIM25 and its application to targeted protein ubiquitination” (Chemical Science, 2025).
The list shows a part of the results.

Protein sequences, listed by entry. Tags and fused reporters are not part of them. Lines headed by an entry give the natural chain unless they say otherwise; changes in a name come on top.
UniProt Q93009, whole entry, looked up: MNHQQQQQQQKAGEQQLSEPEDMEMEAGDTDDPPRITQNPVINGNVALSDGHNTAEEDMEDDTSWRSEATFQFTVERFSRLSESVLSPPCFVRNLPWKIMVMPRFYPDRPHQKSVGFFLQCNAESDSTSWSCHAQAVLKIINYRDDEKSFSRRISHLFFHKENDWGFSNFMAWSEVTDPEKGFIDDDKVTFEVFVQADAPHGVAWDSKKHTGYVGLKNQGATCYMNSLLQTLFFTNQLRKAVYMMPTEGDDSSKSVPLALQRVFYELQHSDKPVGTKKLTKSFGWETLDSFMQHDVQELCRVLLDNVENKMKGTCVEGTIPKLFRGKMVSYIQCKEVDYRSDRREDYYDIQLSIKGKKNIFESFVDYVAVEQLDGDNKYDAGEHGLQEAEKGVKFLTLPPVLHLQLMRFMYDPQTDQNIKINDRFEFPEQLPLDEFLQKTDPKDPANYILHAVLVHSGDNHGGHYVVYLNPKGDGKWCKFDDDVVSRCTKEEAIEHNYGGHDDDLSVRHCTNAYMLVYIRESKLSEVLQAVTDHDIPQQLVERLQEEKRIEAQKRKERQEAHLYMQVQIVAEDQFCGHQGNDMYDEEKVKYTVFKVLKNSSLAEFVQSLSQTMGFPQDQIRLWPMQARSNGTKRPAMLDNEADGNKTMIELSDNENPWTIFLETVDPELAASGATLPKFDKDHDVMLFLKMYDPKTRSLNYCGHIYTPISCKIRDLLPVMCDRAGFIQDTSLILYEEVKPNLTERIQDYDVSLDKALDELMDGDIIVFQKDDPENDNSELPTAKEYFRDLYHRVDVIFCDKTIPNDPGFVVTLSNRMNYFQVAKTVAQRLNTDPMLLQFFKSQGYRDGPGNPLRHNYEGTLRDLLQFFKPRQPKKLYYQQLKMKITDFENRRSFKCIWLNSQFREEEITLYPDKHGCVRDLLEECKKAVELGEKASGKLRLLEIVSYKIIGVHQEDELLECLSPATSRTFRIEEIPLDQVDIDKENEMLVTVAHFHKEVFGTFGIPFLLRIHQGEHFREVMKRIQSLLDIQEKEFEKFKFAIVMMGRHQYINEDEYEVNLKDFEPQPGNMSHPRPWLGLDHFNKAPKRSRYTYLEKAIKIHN
UniProt P31930: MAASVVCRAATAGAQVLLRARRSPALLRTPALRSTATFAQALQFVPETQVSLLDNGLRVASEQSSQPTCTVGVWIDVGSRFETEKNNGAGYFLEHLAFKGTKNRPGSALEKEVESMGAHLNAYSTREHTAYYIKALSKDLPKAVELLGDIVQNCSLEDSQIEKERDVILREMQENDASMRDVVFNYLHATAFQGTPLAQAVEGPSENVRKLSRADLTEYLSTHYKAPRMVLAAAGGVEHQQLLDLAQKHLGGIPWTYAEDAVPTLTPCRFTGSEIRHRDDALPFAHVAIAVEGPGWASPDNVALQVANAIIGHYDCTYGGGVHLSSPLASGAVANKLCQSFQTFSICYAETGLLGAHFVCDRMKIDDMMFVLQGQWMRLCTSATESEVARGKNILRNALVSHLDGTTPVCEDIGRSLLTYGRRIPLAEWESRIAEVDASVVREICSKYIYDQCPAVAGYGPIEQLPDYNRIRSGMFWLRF
UniProt Q96T88: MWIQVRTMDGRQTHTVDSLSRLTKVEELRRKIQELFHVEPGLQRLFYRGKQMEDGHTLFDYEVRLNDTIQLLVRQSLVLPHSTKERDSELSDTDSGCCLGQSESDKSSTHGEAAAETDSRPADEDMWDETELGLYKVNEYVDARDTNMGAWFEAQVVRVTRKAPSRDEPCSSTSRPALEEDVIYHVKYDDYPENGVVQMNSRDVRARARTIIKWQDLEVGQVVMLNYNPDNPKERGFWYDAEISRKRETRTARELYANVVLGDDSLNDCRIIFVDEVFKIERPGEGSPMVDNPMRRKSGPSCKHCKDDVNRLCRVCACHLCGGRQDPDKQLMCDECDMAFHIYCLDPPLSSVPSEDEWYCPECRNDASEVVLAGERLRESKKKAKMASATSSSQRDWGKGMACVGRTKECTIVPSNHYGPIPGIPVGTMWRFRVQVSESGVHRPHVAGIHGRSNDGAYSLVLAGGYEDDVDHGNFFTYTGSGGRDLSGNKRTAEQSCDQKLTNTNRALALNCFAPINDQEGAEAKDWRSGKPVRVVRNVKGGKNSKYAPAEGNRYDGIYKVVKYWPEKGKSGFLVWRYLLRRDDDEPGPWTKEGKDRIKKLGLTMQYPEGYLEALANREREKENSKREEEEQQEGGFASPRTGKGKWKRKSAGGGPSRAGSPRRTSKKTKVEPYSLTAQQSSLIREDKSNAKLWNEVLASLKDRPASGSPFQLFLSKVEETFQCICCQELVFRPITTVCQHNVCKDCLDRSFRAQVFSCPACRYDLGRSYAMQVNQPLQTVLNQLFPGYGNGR
UniProt P10746: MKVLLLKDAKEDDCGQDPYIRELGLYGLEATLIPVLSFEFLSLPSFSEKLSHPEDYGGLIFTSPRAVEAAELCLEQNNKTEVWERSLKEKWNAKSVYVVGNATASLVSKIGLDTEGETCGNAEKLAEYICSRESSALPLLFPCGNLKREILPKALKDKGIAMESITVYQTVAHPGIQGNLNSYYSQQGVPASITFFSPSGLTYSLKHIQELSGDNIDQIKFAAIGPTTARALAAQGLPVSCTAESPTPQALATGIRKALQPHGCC
UniProt Q9Y5T5, whole entry, looked up: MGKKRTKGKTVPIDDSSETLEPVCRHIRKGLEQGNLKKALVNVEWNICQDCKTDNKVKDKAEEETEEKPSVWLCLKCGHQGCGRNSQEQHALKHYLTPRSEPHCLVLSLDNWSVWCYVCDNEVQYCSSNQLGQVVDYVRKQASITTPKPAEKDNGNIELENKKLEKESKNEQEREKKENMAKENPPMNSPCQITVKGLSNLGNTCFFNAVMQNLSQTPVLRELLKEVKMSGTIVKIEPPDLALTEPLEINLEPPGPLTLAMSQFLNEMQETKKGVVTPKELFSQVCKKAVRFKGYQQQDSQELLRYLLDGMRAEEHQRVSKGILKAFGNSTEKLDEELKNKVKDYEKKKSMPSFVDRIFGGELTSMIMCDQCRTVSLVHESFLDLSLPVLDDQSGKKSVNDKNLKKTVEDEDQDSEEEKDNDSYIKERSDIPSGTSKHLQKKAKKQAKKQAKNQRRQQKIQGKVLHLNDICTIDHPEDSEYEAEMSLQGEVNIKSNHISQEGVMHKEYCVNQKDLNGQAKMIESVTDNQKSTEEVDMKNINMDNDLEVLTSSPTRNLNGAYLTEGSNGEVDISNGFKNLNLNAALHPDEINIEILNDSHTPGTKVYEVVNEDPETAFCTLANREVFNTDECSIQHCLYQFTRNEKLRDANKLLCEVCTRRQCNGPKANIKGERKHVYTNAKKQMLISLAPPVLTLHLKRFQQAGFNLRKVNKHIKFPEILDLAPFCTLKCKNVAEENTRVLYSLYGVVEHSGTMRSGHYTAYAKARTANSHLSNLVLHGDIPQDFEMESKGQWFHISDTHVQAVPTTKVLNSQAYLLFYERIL
UniProt Q13107: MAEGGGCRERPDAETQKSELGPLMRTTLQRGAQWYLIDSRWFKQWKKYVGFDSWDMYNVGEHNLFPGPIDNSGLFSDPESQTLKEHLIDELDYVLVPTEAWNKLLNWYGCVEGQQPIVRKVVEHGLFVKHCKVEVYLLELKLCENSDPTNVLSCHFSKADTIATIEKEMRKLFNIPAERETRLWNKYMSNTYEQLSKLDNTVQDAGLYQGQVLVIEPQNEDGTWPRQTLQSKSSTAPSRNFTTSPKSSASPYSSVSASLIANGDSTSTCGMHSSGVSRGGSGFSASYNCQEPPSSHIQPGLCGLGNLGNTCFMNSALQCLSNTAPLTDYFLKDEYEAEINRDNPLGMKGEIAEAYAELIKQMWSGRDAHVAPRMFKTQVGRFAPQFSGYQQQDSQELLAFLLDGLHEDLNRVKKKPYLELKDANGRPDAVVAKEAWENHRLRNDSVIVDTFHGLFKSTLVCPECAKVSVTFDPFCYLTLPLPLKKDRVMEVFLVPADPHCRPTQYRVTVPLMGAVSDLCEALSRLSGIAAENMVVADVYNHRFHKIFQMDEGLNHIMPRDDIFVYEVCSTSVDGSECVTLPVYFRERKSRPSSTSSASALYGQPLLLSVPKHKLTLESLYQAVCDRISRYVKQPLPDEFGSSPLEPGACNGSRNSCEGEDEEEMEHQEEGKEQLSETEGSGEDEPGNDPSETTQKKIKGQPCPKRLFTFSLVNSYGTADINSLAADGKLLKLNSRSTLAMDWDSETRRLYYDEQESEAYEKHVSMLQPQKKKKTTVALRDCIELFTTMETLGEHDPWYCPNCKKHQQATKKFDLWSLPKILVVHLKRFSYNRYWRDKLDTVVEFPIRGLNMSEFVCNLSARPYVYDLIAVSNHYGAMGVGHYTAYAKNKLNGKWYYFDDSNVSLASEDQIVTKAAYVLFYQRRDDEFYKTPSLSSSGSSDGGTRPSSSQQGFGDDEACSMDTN
UniProt O94763, whole entry: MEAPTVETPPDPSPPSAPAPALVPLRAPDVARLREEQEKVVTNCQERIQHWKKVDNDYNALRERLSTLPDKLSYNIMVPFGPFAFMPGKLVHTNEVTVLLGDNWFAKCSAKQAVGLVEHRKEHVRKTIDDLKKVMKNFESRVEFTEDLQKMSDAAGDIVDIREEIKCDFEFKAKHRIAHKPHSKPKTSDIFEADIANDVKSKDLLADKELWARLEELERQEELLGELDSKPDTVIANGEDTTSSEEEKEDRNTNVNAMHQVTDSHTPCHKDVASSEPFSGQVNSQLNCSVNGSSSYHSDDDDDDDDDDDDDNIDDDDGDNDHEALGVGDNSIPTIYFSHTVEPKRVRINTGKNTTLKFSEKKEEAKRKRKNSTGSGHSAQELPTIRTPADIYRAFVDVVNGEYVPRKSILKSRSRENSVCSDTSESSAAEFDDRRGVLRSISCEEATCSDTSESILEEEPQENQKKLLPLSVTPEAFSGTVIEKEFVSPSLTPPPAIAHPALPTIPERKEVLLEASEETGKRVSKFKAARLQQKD
UniProt Q9NYU2: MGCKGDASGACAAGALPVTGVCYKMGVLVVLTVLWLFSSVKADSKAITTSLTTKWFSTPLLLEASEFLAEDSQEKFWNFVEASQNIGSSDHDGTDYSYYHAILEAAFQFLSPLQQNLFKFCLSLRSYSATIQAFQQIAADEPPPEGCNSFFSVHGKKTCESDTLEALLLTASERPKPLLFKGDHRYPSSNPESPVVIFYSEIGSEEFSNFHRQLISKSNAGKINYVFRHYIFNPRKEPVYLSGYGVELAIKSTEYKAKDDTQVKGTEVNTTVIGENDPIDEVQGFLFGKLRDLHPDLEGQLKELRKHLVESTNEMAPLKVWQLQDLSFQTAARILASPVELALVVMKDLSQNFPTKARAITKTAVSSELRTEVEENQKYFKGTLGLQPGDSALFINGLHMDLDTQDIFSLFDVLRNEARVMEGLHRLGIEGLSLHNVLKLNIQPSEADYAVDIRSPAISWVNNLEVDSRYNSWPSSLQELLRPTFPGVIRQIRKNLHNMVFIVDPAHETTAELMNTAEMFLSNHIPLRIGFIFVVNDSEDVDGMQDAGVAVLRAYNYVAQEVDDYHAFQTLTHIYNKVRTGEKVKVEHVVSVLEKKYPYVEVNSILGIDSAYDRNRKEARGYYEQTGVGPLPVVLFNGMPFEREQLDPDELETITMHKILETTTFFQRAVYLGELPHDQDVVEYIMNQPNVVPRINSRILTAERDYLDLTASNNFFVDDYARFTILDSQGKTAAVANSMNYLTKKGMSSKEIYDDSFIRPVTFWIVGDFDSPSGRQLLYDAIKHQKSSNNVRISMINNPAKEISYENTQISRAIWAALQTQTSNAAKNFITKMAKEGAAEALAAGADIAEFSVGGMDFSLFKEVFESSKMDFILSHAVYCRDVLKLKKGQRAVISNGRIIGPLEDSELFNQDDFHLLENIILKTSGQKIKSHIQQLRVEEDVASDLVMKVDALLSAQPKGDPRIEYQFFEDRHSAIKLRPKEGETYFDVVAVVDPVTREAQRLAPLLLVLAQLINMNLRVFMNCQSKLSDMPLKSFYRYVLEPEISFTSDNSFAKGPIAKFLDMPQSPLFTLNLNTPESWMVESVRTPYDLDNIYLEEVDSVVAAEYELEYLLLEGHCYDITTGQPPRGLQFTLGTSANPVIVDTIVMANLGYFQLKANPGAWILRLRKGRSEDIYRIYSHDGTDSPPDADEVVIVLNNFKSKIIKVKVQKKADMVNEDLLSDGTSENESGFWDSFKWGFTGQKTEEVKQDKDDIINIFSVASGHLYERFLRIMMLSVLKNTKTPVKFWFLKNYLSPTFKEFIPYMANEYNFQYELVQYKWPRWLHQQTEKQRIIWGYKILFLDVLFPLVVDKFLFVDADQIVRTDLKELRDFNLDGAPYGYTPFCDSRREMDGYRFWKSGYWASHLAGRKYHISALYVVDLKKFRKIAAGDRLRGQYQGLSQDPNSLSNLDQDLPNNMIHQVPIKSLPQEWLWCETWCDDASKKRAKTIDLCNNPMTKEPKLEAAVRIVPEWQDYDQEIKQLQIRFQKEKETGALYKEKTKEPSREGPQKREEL

Compound: CC1Cc2ccccc2N1C(=O)C1CCCN(C1)C(=O)CCl (mixture of isomers) [TRIM25 ligand 11 (diastereomer mixture)]
Assay: probe-labelled cysteine peptide fold change vs DMSO (competition) (log2 fold change); higher = less target engagement (more negative = stronger competition)
Conditions: 50 µM; THP-1; incubation time: 4 h
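Also: competitive chemoproteomic profiling in live THP-1 cells with an iodoacetamide desthiobiotin (IA-DTB) probe, comparing probe-labelled peptide intensities in compound-treated cells against DMSO-treated controls.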

Target	probe-labelled cysteine peptide fold change
UGDH_O60701_9+20_ICCIGAGYVGGPTCSVIAHMCPEIR (UniProt O60701)	0.117
USP7_Q93009_702_SLNYCGHIYTPISCK (UniProt Q93009)	-0.139
USP13_Q92995_231_ENLWLNLTDGSVLCGK (UniProt Q92995)	0.217
UHRF1BP1L_A0JNW5_1235_HYLCNRPVGSDQK (UniProt A0JNW5)	-0.0626
UQCRC1_P31930_453_YIYDQCPAVAGYGPIEQLPDYNR (UniProt P31930)	0.0548
UHRF1_Q96T88_497_RTAEQSCDQK (UniProt Q96T88)	-0.0331
UROS_P10746_143_ESSALPLLFPCGNLKR (UniProt P10746)	-0.138
USP16_Q9Y5T5_24_TVPIDDSSETLEPVCR (UniProt Q9Y5T5)	-0.248
UFL1_O94874_708_CVPQIIAFLNSK (UniProt O94874)	0.00881
USP4_Q13107_649_QPLPDEFGSSPLEPGACNGSR (UniProt Q13107)	-0.454
UBXN6_Q9BZV1_210_INCLEGTHEFFEAIGFQK (UniProt Q9BZV1)	0.00194
URI1_O94763_268_NTNVNAMHQVTDSHTPCHK (UniProt O94763)	-0.235
USP16_Q9Y5T5_726_FPEILDLAPFCTLK (UniProt Q9Y5T5)	-0.123
UGGT1_Q9NYU2_159_KTCESDTLEALLLTASERPKPLLFK (UniProt Q9NYU2)	-0.333
UGGT1_Q9NYU2_1475+1479_SLPQEWLWCETWCDDASK (UniProt Q9NYU2)	0.0507
USP40_Q9NVE5_832_MGSSLGLCLGK (UniProt Q9NVE5)	-0.0256
